Laboratory results: publication PMC11233548 (Communications Biology, 2024)

Experiment: Circular dichroism spectra
Assay type: physicochemical
Conditions: 25 μM acetylated peptide, 1x PBS pH 7.5, 20 °C

Question: With “Ac-LLRPTAASQSRALGPGAPGGSSRSSLRSRWGRFLLQRGSWTGPRCWPRGFQS-NH2 (N-terminus and C-terminus assumed) [L5UR]” as the substance, how does the “antiparallel β-sheet content” value read?
Answer: The value was ~ 25%.

Question: And the secondary structure?
Answer: The secondary structure was “mostly random coil”.
